# The other results are listed elsewhere or left out. Small differences around the control level are noise.
# Chains of the proteins cited; added tags and fusions are not shown. Lines headed by an entry give the natural chain unless they say otherwise; changes in a name come on top.
# UniProt Q96G21: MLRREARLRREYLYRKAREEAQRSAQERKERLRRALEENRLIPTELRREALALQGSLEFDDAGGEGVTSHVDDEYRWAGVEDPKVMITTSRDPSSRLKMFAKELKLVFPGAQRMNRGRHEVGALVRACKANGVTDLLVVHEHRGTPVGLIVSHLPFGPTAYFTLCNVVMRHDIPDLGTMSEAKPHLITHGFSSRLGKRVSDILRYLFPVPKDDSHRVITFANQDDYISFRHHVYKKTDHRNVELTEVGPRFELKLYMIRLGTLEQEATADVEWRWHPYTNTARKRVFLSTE
# UniProt Q96C57: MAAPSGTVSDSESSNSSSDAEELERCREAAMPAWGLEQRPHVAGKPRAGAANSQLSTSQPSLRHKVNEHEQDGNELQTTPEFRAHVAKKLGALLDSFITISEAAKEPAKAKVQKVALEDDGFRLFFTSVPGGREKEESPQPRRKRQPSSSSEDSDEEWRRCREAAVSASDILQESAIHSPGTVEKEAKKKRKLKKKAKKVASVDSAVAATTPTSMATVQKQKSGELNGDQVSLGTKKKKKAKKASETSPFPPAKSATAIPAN
# UniProt Q96BT7: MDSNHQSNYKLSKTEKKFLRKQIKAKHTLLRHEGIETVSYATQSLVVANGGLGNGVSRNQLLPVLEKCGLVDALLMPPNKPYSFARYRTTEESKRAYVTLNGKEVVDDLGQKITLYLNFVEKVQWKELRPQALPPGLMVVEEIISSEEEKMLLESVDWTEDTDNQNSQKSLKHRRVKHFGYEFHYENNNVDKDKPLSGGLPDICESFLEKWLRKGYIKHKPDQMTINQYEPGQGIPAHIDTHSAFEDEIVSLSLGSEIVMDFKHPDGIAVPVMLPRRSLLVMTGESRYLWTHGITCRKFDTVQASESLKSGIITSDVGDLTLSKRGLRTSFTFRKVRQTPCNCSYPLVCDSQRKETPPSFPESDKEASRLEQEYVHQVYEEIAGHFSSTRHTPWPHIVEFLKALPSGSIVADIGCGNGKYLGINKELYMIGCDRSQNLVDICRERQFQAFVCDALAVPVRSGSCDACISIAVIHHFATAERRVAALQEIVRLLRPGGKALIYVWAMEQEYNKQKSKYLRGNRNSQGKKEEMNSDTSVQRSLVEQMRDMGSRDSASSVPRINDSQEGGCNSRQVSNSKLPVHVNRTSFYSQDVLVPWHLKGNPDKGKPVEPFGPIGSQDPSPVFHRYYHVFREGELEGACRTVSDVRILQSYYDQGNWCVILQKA
# UniProt Q96GD0: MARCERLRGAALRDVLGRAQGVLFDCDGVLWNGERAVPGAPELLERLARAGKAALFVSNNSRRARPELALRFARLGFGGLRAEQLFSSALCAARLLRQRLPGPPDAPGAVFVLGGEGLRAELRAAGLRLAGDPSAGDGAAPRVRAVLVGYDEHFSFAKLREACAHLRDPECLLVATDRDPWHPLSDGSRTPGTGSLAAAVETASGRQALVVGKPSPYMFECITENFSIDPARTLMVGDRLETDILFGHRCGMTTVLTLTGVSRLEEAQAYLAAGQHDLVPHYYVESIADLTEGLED
# UniProt Q96EF9: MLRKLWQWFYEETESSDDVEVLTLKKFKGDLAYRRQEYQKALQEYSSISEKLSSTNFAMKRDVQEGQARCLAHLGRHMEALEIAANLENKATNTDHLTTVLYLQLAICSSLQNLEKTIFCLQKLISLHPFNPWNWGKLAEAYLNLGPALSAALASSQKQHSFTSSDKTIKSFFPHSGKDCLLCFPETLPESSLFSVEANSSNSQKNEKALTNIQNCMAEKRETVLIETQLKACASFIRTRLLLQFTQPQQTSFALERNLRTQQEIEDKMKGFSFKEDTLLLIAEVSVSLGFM
# UniProt Q96DN5: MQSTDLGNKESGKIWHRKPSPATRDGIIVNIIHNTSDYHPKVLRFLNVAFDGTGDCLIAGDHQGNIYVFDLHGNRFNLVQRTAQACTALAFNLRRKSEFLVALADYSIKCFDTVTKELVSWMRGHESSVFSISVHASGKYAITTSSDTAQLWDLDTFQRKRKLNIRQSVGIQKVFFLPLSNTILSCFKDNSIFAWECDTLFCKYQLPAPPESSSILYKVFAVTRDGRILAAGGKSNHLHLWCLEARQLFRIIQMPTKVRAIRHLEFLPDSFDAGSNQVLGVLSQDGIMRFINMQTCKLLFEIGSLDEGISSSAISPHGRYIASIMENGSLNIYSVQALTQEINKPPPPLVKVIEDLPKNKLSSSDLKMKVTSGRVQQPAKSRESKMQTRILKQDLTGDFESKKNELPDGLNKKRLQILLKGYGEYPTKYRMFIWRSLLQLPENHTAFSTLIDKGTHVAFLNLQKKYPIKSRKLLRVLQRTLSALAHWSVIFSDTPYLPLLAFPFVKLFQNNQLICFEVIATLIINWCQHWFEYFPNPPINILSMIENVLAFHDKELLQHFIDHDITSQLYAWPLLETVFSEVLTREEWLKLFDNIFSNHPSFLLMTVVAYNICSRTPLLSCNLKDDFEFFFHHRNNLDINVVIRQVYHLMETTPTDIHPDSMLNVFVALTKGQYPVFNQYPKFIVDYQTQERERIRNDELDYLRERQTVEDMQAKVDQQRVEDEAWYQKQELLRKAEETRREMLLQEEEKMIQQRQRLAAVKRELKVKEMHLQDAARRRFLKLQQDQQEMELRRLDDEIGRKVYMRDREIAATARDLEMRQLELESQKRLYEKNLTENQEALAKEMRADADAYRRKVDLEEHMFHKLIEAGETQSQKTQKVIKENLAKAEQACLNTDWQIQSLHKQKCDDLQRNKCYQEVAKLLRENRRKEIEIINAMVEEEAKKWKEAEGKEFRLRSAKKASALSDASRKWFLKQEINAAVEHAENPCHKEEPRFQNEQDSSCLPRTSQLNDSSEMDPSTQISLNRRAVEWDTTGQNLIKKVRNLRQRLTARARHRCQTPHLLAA
# UniProt Q96ER3: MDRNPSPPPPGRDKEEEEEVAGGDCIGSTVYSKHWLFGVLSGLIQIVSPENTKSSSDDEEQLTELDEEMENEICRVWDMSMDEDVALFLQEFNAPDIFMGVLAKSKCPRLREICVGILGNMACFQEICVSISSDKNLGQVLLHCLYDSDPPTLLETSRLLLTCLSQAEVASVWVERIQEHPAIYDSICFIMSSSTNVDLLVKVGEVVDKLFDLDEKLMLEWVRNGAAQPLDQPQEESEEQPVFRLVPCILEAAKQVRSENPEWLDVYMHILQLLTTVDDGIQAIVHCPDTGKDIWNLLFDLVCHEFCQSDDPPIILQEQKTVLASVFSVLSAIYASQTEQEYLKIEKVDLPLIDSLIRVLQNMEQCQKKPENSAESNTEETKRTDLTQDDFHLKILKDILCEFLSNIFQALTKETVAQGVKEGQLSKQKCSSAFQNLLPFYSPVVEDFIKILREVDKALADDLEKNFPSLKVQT
# UniProt Q96D05: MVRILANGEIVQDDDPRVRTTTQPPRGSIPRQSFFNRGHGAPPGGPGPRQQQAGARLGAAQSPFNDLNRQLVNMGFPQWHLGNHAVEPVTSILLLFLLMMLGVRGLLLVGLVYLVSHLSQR
# UniProt Q96FC9: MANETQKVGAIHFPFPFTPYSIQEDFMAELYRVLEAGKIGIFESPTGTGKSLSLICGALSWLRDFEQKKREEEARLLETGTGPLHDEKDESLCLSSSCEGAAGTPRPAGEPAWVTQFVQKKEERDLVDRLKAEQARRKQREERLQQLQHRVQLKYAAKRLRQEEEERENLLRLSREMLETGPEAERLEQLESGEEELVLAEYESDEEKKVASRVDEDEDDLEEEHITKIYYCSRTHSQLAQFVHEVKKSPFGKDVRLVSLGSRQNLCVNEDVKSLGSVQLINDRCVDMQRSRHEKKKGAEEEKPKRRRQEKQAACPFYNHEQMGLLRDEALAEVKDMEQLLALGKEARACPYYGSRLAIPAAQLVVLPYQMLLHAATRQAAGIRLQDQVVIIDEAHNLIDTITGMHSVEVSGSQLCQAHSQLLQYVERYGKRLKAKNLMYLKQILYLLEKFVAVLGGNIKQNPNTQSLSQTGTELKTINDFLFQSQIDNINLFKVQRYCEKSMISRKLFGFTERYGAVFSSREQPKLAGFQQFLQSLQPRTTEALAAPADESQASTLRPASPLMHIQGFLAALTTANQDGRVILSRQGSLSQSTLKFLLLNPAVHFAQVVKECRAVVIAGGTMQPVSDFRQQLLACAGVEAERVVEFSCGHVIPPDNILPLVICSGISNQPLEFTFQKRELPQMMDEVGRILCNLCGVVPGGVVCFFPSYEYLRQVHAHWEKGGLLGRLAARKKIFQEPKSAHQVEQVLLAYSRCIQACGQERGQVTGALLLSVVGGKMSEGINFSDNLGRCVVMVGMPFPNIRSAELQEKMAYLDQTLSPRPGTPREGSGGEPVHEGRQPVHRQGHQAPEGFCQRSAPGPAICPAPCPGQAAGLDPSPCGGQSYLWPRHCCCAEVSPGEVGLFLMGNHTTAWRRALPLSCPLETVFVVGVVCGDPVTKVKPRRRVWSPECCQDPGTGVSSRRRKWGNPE
# UniProt Q96BD5: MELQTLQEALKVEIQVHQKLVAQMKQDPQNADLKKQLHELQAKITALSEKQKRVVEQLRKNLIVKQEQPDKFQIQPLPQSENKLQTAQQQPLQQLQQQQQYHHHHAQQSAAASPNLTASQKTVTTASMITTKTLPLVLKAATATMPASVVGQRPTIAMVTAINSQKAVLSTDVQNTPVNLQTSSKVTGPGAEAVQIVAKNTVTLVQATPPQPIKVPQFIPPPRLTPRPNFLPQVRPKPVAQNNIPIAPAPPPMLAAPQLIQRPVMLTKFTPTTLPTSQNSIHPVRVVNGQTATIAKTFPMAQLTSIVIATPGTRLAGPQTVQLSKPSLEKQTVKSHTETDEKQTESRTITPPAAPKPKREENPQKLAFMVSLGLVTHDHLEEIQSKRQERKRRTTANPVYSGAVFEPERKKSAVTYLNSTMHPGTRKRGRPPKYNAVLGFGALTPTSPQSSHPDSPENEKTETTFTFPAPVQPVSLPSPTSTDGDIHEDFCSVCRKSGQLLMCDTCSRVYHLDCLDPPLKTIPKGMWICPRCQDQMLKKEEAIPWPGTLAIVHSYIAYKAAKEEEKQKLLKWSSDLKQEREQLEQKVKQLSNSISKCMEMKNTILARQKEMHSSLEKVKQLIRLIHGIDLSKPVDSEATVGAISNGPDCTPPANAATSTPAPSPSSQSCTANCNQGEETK
# Compound: CN[C@@H]1C[C@H]2O[C@@](C)([C@@H]1OC)n1c3ccccc3c3c4c(c5c6ccccc6n2c5c31)C(=O)NC4 [staurosporine]
# Experiment: log2 fold change of tryptic peptide abundance, ligand vs vehicle (limited proteolysis) (log2 ratio); higher = more trypsin-susceptible (destabilized)
# Conditions: ligand concentration: 20 uM; sample: K562 cleared lysate; digestion: 4 min, 22 C (HT-PELSA RT4min, Orbitrap Astral)
row,Target,log2 fold change
1,"IMP4 (peptide sequence: WHPYTNTAR, peptide start residue: 275) (UniProt Q96G21)",0.127
2,"UniProt Q96C57 (peptide sequence: CREAAVSASDILQESAIHSPGTVEK, peptide start residue: 161)",0.395
3,"ALKBH8 (peptide sequence: ETPPSFPESDKEASR, peptide start residue: 355) (UniProt Q96BT7)",0.489
4,"PDXP (peptide sequence: AVPGAPELLER, peptide start residue: 36) (UniProt Q96GD0)",0.213
5,"UniProt Q96EF9 (peptide sequence: SFFPHSGK, peptide start residue: 203)",0.163
6,"UniProt Q96DN5 (peptide sequence: CQTPHLLAA, peptide start residue: 1058)",-0.741
7,"SAAL1 (peptide sequence: VDLPLIDSLIR, peptide start residue: 348) (UniProt Q96ER3)",-0.131
8,"UniProt Q96D05 (peptide sequence: GHGAPPGGPGPR, peptide start residue: 38)",0.33
9,"UniProt Q96EY5 (peptide sequence: SLADIEEEYNYGFVVEK, peptide start residue: 246)",-0.461
10,"DDX11 (peptide sequence: ELPQMMDEVGR, peptide start residue: 680) (UniProt Q96FC9)",0.12
11,"PHF21A (peptide sequence: GMWICPRCQDQMLK, peptide start residue: 525) (UniProt Q96BD5)",0.586

# From the supplement of paper PMC12819154, “High-throughput peptide-centric local stability assay extends protein–ligand identification to membrane proteins, tissues and bacteria” (Nature Structural & Molecular Biology, 2025)
